{"source": "the supplement of paper PMC3334620", "note": "Over roughly 33,000 sequences, “E-score (-0.5 to 0.5)” has its median near -8e-05; the highest 2% begin near 0.23. Some of the results follow."}
{"target": "T1, Nrg2 (UniProt P38082)", "T1 sequence": "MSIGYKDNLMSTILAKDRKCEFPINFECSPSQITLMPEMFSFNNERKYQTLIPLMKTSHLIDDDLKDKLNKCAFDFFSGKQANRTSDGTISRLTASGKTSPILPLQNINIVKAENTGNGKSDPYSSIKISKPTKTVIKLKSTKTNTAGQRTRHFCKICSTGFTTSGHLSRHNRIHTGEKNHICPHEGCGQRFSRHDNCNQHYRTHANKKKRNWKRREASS", "experiment": "PBM E-score (8-mer binding enrichment) (E-score (-0.5 to 0.5)); higher = stronger / more preferred TF binding", "details": "protein concentration: 100 nM; construct: GST-full length", "summary_of_the_method": "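Detection of bound protein used fluorescent anti-GST, with scans normalised by masliner. The proteins were GST-tagged yeast transcription factors applied at about 100-200 nM to universal all-10-mer Agilent arrays made double-stranded by primer extension. Each ungapped eight-base word, pooled with its reverse complement, was scored with an E-score from the Universal PBM Analysis Suite.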"}
{"sequence": "TCGGACGA", "PBM E-score": 0.169}
{"sequence": "CTATTCCA", "PBM E-score": 0.167}
{"sequence": "ATAGGGAA", "PBM E-score": -0.11}
{"sequence": "GGCACTCA", "PBM E-score": -0.181}
{"sequence": "CAGCATGC", "PBM E-score": 0.0425}
{"sequence": "ATGGCTCG", "PBM E-score": 0.063}
{"sequence": "ATCCTTCC", "PBM E-score": -0.249}
{"sequence": "TGCGCGCA", "PBM E-score": 0.211}
{"sequence": "CTCACTCA", "PBM E-score": -0.0512}
{"sequence": "CGACAAGA", "PBM E-score": 0.191}
{"sequence": "CACCGCTG", "PBM E-score": -0.104}
{"sequence": "AGAACTAC", "PBM E-score": 0.0806}
{"sequence": "GAAGCCAA", "PBM E-score": -0.0658}
{"sequence": "ATTAATGC", "PBM E-score": 0.0582}
{"sequence": "CGCAAAGA", "PBM E-score": 0.111}
{"sequence": "CACAAGAG", "PBM E-score": 0.14}
{"sequence": "GCTGCTCA", "PBM E-score": -0.114}
{"sequence": "ATGGATCG", "PBM E-score": 0.0772}
{"sequence": "ACCCGCTC", "PBM E-score": -0.19}
{"sequence": "GAATGCAC", "PBM E-score": 0.0486}
{"sequence": "TAAGATTA", "PBM E-score": -0.0227}
{"sequence": "CTCGACGC", "PBM E-score": 0.0222}
{"sequence": "CCATCTAC", "PBM E-score": 0.0771}
{"sequence": "CCAGATGG", "PBM E-score": -0.0627}
{"sequence": "CGGAAATC", "PBM E-score": -0.0345}
{"sequence": "ACTATAGC", "PBM E-score": -0.094}
{"sequence": "ACGTTCAC", "PBM E-score": -0.135}
{"sequence": "CTGTACAC", "PBM E-score": 0.0438}
{"sequence": "CAATTACA", "PBM E-score": 0.165}
{"sequence": "ACCACCGC", "PBM E-score": 0.0124}
{"sequence": "CCGGACAG", "PBM E-score": 0.0654}
{"sequence": "CATAGAGA", "PBM E-score": -0.0297}
{"sequence": "CCCGGAAG", "PBM E-score": -0.084}
{"sequence": "CCCGCCTC", "PBM E-score": -0.122}
{"sequence": "AGACGCTA", "PBM E-score": -0.138}
{"sequence": "AATGGCAA", "PBM E-score": -0.0281}
{"sequence": "ATAGCGGC", "PBM E-score": 0.00138}
{"sequence": "ATATTAGC", "PBM E-score": 0.129}
{"sequence": "GGTAGGAC", "PBM E-score": -0.0944}
{"sequence": "AGGTCACG", "PBM E-score": -0.164}
{"sequence": "AATGACAC", "PBM E-score": 0.0228}
{"sequence": "CCTAGCAC", "PBM E-score": -0.122}
{"sequence": "AGAGCTCC", "PBM E-score": -0.192}
{"sequence": "ACAAACGG", "PBM E-score": 0.186}
{"sequence": "ATACAACA", "PBM E-score": 0.246}
{"sequence": "GTAGGCTA", "PBM E-score": -0.139}
{"sequence": "ATCGGCAG", "PBM E-score": 0.0895}
{"sequence": "ACTCACTA", "PBM E-score": 0.102}
{"sequence": "GGCCCCTA", "PBM E-score": 0.0271}
{"sequence": "CTTTAGCC", "PBM E-score": -0.00956}
{"sequence": "CTGTGAAC", "PBM E-score": 0.0404}
{"sequence": "CGTTCGTC", "PBM E-score": 0.152}
{"sequence": "CATCGTGA", "PBM E-score": -0.185}
{"sequence": "ATAGTGGA", "PBM E-score": 0.0767}
{"sequence": "GAGATGCC", "PBM E-score": -0.0159}
{"sequence": "ATCAATAC", "PBM E-score": 0.136}
{"sequence": "GACAACGA", "PBM E-score": 0.131}
{"sequence": "TAGGTCGA", "PBM E-score": -0.0386}
{"sequence": "CCCTTATC", "PBM E-score": 0.156}
{"sequence": "ATGAAAAA", "PBM E-score": 0.147}
{"sequence": "AAGGACGC", "PBM E-score": 0.125}
{"sequence": "ACCGGTCT", "PBM E-score": -0.319}
{"sequence": "AGTTTCAG", "PBM E-score": -0.0621}
{"sequence": "ACGGCTAC", "PBM E-score": -0.0414}
{"sequence": "CCGGACCC", "PBM E-score": 0.0932}
{"sequence": "CAGTTAAG", "PBM E-score": 0.117}
{"sequence": "ACATTCGC", "PBM E-score": 0.0444}
{"sequence": "AAGAGTAG", "PBM E-score": -0.00063}
{"sequence": "AAGCGCGT", "PBM E-score": 0.0191}
{"sequence": "TGAGGAAA", "PBM E-score": -0.0852}
{"sequence": "CGTGAAGC", "PBM E-score": -0.101}
{"sequence": "ACCAACGT", "PBM E-score": -0.0856}
{"sequence": "AAGTGGGT", "PBM E-score": 0.0971}
{"sequence": "ATCAGGTA", "PBM E-score": -0.0349}
{"sequence": "AGCCTAAA", "PBM E-score": -0.0539}
{"sequence": "CCCTGTCG", "PBM E-score": 0.185}
{"sequence": "AAGTGGAC", "PBM E-score": -0.0892}
{"sequence": "ATAGTGAG", "PBM E-score": -0.0619}
{"sequence": "CACATGCA", "PBM E-score": 0.0613}
{"sequence": "AAGGGGAC", "PBM E-score": 0.0615}
{"sequence": "ACATGCGC", "PBM E-score": 0.182}
{"sequence": "AATAAATT", "PBM E-score": 0.215}
{"sequence": "TGCTATAA", "PBM E-score": -0.0684}
{"sequence": "ACGCGCTC", "PBM E-score": 0.154}
{"sequence": "GTAATCTA", "PBM E-score": 0.225}
{"sequence": "CACCATGG", "PBM E-score": -0.215}
{"sequence": "ATCTACAA", "PBM E-score": -0.0413}
{"sequence": "TGAAGTAA", "PBM E-score": -0.0936}
{"sequence": "AAAAGATC", "PBM E-score": -0.0177}
{"sequence": "AGCGCCAC", "PBM E-score": -0.11}
{"sequence": "ATCAGGAG", "PBM E-score": -0.0827}
{"sequence": "GAGCTCCC", "PBM E-score": 0.0119}
{"sequence": "ACTTAACC", "PBM E-score": -0.0358}
{"sequence": "CGGCGACC", "PBM E-score": -0.0226}
{"sequence": "CTTATTCC", "PBM E-score": 0.0106}
{"sequence": "AGCTTCAC", "PBM E-score": 0.0099}
{"sequence": "TACCTGGA", "PBM E-score": 0.0424}
{"sequence": "ATACAGAC", "PBM E-score": 0.0805}
{"sequence": "ATAGAGAC", "PBM E-score": -0.0374}
{"sequence": "GTAGATCA", "PBM E-score": 0.196}
{"sequence": "GAGATAAC", "PBM E-score": 0.0987}
{"sequence": "CGAGTAGC", "PBM E-score": -0.0185}
{"sequence": "GTAAGTAA", "PBM E-score": -0.011}
{"sequence": "AGGCATAC", "PBM E-score": 0.0524}
{"sequence": "ACATTCAA", "PBM E-score": 0.069}
{"sequence": "AATAACCT", "PBM E-score": -0.0751}
{"sequence": "GAGTGTCC", "PBM E-score": 0.00608}
{"sequence": "AATGGCCC", "PBM E-score": -0.223}
{"sequence": "CGGAATGC", "PBM E-score": 0.133}
{"sequence": "ACGTCACG", "PBM E-score": -0.0893}
{"sequence": "CCATCATA", "PBM E-score": -0.108}
{"sequence": "GAGGTGAC", "PBM E-score": 0.133}
{"sequence": "AGCTTACC", "PBM E-score": -0.148}
{"sequence": "GAGACAAC", "PBM E-score": 0.16}
{"sequence": "AAAGCAGT", "PBM E-score": 0.201}
{"sequence": "CAGACCTG", "PBM E-score": -0.119}
{"sequence": "AACGAGGG", "PBM E-score": -0.0046}
{"sequence": "CTTATCTC", "PBM E-score": -0.0296}
{"sequence": "AGGTTAAT", "PBM E-score": -0.0899}
{"sequence": "ACTCAGAA", "PBM E-score": 0.157}
{"sequence": "GCTGTACC", "PBM E-score": -0.0883}
{"sequence": "CCGGGACA", "PBM E-score": 0.00621}
{"sequence": "AAGGTGCG", "PBM E-score": -0.0555}
{"sequence": "AGGATTAG", "PBM E-score": -0.114}
{"sequence": "CGCACGCC", "PBM E-score": -0.0435}
{"sequence": "ATTTGTTC", "PBM E-score": 0.272}
{"sequence": "ACTCTCTG", "PBM E-score": 0.0221}
{"sequence": "GGTCGTAA", "PBM E-score": -0.089}
{"sequence": "AACTCTTA", "PBM E-score": 0.0494}
{"sequence": "GGCCCGAC", "PBM E-score": -0.0434}
{"sequence": "ATGTATTA", "PBM E-score": -0.041}
{"sequence": "CGCACCGC", "PBM E-score": -0.207}
{"sequence": "ATCGAGGA", "PBM E-score": 0.0639}
{"sequence": "GACATCGA", "PBM E-score": -0.206}
{"sequence": "GTTACGGA", "PBM E-score": -0.252}
{"sequence": "ACACTCAA", "PBM E-score": 0.152}
{"sequence": "TACTCGCA", "PBM E-score": 0.172}
{"sequence": "AAGCTACC", "PBM E-score": 0.0567}
{"sequence": "AATGCCAA", "PBM E-score": 0.156}
{"sequence": "ACCTGCCC", "PBM E-score": -0.061}
{"sequence": "AAACAAGC", "PBM E-score": 0.0481}
{"sequence": "AACGGTCC", "PBM E-score": -0.0665}
{"sequence": "GCTATACC", "PBM E-score": -0.0179}
{"sequence": "AGCACCTG", "PBM E-score": -0.127}
{"sequence": "CGCTCACC", "PBM E-score": 0.0628}
{"sequence": "ATCAGCAA", "PBM E-score": 0.0508}
{"sequence": "AAAGACCC", "PBM E-score": 0.117}
{"sequence": "ATGCTTGA", "PBM E-score": 0.116}
{"sequence": "TCGATCCA", "PBM E-score": -0.0926}
{"sequence": "ATGCGCGA", "PBM E-score": 0.00379}
{"sequence": "ATCACAAG", "PBM E-score": 0.0563}
{"sequence": "ACTGGAGA", "PBM E-score": -0.0547}
{"sequence": "AGGTTTAC", "PBM E-score": -0.13}
{"sequence": "AGAGGACT", "PBM E-score": -0.3}
{"sequence": "AAGTACAA", "PBM E-score": 0.0952}
{"sequence": "CTCCCCTC", "PBM E-score": -0.0594}
{"sequence": "CACGACAA", "PBM E-score": -0.033}
{"sequence": "GGGTATCA", "PBM E-score": 0.144}
{"sequence": "ATCCGATA", "PBM E-score": 0.00821}
{"sequence": "CTCTTTTC", "PBM E-score": -0.0184}
{"sequence": "CTGAGAAA", "PBM E-score": -0.0494}
{"sequence": "AAGATGCG", "PBM E-score": 0.19}
{"sequence": "CTCCCGGA", "PBM E-score": -0.111}
{"sequence": "AACACGAA", "PBM E-score": 0.205}
{"sequence": "GACGTGTA", "PBM E-score": -0.121}
{"sequence": "GAAGGCTA", "PBM E-score": -0.185}
{"sequence": "CTATGAAC", "PBM E-score": -0.0583}
{"sequence": "AACACCAC", "PBM E-score": -0.0785}
{"sequence": "GCTGAAAA", "PBM E-score": 0.114}
{"sequence": "CGGATCCA", "PBM E-score": 0.161}
{"sequence": "AGTAGTCA", "PBM E-score": -0.0218}
{"sequence": "GCGATCAC", "PBM E-score": -0.118}
